# This is one part of the list.
# How the values were obtained:
# Experiment in all cases: glycan array binding signal (z-score within array); higher = stronger binding
# Conditions in all cases: glycan notation: IUPAC condensed, linker removed; mutation: Q318A
# [1] = molecular target: Fuc(a1-2)[GalNAc(b1-3)]Gal
# Summary of the method: (§1)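 Arrays were curated from the Consortium for Functional Glycomics database, 3228 in total, and kept only where the protein sequence was available. Binding is expressed as a within-array Z-score. This score was averaged across arrays of the same protein sequence at different concentrations or buffers and across linkers, and negative values can be read as non-binding.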
# [2] = molecular target: Fuc(a1-3)GlcNAc
# Summary of the method: as §1
# [3] = molecular target: Fuc(a1-3)[Gal(b1-4)]Glc6S
# Summary of the method: as §1
# [4] = molecular target: Fuc(a1-3)[Gal(b1-4)]GlcNAc
# Summary of the method: as §1
# [5] = molecular target: Fuc(a1-3)[Gal(b1-4)]GlcNAc(b1-2)Man
# Summary of the method: as §1
# [6] = molecular target: Fuc(a1-3)[Gal(b1-4)]GlcNAc(b1-2)Man(a1-3)[Fuc(a1-3)[Gal(b1-4)]GlcNAc(b1-2)Man(a1-6)]Man(b1-4)GlcNAc(b1-4)GlcNAc
# Summary of the method: as §1
# [7] = molecular target: Fuc(a1-3)[Gal(b1-4)]GlcNAc(b1-2)Man(a1-3)[Fuc(a1-3)[Gal(b1-4)]GlcNAc(b1-2)Man(a1-6)]Man(b1-4)GlcNAc(b1-4)[Fuc(a1-6)]GlcNAc
# Summary of the method: as §1
# [8] = molecular target: Fuc(a1-3)[Gal(b1-4)]GlcNAc(b1-3)Gal(b1-3)[Fuc(a1-4)]GlcNAc
# Summary of the method: as §1
# [9] = molecular target: Fuc(a1-3)[Gal(b1-4)]GlcNAc(b1-3)Gal(b1-4)[Fuc(a1-3)]GlcNAc
# Summary of the method: as §1
# [10] = molecular target: Fuc(a1-3)[Gal(b1-4)]GlcNAc(b1-3)Gal(b1-4)[Fuc(a1-3)]GlcNAc(b1-3)Gal(b1-4)[Fuc(a1-3)]GlcNAc
# Summary of the method: as §1
# [11] = molecular target: Fuc(a1-3)[Gal(b1-4)]GlcNAc(b1-3)GalNAc
# Summary of the method: as §1
# [12] = molecular target: Fuc(a1-3)[Gal(b1-4)]GlcNAc(b1-6)GalNAc
# Summary of the method: as §1
# [13] = molecular target: Fuc(a1-3)[Gal(b1-4)]GlcNAc(b1-6)[Gal(b1-3)GlcNAc(b1-3)]Gal(b1-4)Glc
# Summary of the method: as §1
# [14] = molecular target: Fuc(a1-3)[Gal(b1-4)]GlcNAc6S
# Summary of the method: as §1
# [15] = molecular target: Fuc(a1-3)[Gal3S(b1-4)]Glc
# Summary of the method: as §1
# [16] = molecular target: Fuc(a1-3)[Gal3S(b1-4)]GlcNAc
# Summary of the method: as §1
# [17] = molecular target: Fuc(a1-3)[Gal3S(b1-4)]GlcNAc6S
# Summary of the method: as §1
# [18] = molecular target: Fuc(a1-3)[GalNAc(b1-4)]GlcNAc
# Summary of the method: as §1
# [19] = molecular target: Fuc(a1-3)[GalNAc(b1-4)]GlcNAc6S
# Summary of the method: as §1
# [20] = molecular target: Fuc(a1-4)GlcNAc
# Summary of the method: as §1
# [21] = molecular target: Fuc(b1-3)GlcNAc
# Summary of the method: as §1
# [22] = molecular target: Gal(a1-2)Gal
# Summary of the method: as §1
# [23] = molecular target: Gal(a1-3)Gal
# Summary of the method: as §1
# [24] = molecular target: Gal(a1-3)Gal(b1-3)GlcNAc
# Summary of the method: as §1
# [25] = molecular target: Gal(a1-3)Gal(b1-3)GlcNAc(b1-2)Man
# Summary of the method: as §1
# [26] = molecular target: Gal(a1-3)Gal(b1-3)GlcNAc(b1-2)Man(a1-3)[Gal(a1-3)Gal(b1-3)GlcNAc(b1-2)Man(a1-6)]Man(b1-4)GlcNAc(b1-4)GlcNAc
# Summary of the method: as §1
# [27] = molecular target: Gal(a1-3)Gal(b1-3)GlcNAc(b1-3)GalNAc
# Summary of the method: as §1
# [28] = molecular target: Gal(a1-3)Gal(b1-3)GlcNAc(b1-6)GalNAc
# Summary of the method: as §1
# [29] = molecular target: Gal(a1-3)Gal(b1-3)[Fuc(a1-4)]GlcNAc(b1-2)Man(a1-3)[Gal(a1-3)Gal(b1-3)[Fuc(a1-4)]GlcNAc(b1-2)Man(a1-6)]Man(b1-4)GlcNAc(b1-4)GlcNAc
# Summary of the method: as §1
# [30] = molecular target: Gal(a1-3)Gal(b1-4)Glc
# Summary of the method: as §1
# [31] = molecular target: Gal(a1-3)Gal(b1-4)GlcNAc
# Summary of the method: as §1
# [32] = molecular target: Gal(a1-3)Gal(b1-4)GlcNAc(b1-2)Man
# Summary of the method: as §1
# [33] = molecular target: Gal(a1-3)Gal(b1-4)GlcNAc(b1-2)Man(a1-3)[Gal(a1-3)Gal(b1-4)GlcNAc(b1-2)Man(a1-6)]Man(b1-4)GlcNAc(b1-4)GlcNAc
# Summary of the method: as §1
# [34] = molecular target: Gal(a1-3)Gal(b1-4)GlcNAc(b1-3)GalNAc
# Summary of the method: as §1
# [35] = molecular target: Gal(a1-3)Gal(b1-4)GlcNAc(b1-6)GalNAc
# Summary of the method: as §1
# [36] = molecular target: Gal(a1-3)Gal(b1-4)[Fuc(a1-3)]GlcNAc
# Summary of the method: as §1
# [37] = molecular target: Gal(a1-3)Gal(b1-4)[Fuc(a1-3)]GlcNAc(b1-2)Man(a1-3)[Gal(a1-3)Gal(b1-4)[Fuc(a1-3)]GlcNAc(b1-2)Man(a1-6)]Man(b1-4)GlcNAc(b1-4)GlcNAc
# Summary of the method: as §1
# [38] = molecular target: Gal(a1-3)GalNAc
# Summary of the method: as §1
# [39] = molecular target: Gal(a1-3)[Gal(a1-4)]Gal(b1-4)GlcNAc
# Summary of the method: as §1
# [40] = molecular target: Gal(a1-4)Gal(b1-3)GlcNAc(b1-2)Man(a1-3)[Gal(a1-4)Gal(b1-3)GlcNAc(b1-2)Man(a1-6)]Man(b1-4)GlcNAc(b1-4)GlcNAc
# Summary of the method: as §1
# [41] = molecular target: Gal(a1-4)Gal(b1-4)Glc
# Summary of the method: as §1
# [42] = molecular target: Gal(a1-4)Gal(b1-4)GlcNAc
# Summary of the method: as §1
# [43] = molecular target: Gal(a1-4)Gal(b1-4)GlcNAc(b1-2)Man(a1-3)[Gal(a1-4)Gal(b1-4)GlcNAc(b1-2)Man(a1-6)]Man(b1-4)GlcNAc(b1-4)GlcNAc
# Summary of the method: as §1
# [44] = molecular target: Gal(a1-4)Gal(b1-4)GlcNAc(b1-3)Gal(b1-4)Glc
# Summary of the method: as §1
# [45] = molecular target: Gal(a1-4)GlcNAc
# Summary of the method: as §1
binder,measurement,setting,value
"SUN4 (Saccharomyces cerevisiae), P53616 (protein) MGSSHHHHHHSSGLVPRGSHNGSIYGDLADFSGPYEKFEDGTIPCGQFPSGQGVIPISWLDEGGWSGVENTDTSTGGSCKEGSYCSYACQPGMSKTQWPSDQPSDGRSIGGLLCKDGYLYRSNTDTDYLCEWGVDAAYVVSELSNDVAICRTDYPGTENMVIPTYVQAGDSLPLTVVDQDTYYTWQGLKTSAAYYVNNAGISVEDACVWGSSSSGVGNWAPLNFGAGSSDGVAYLSLIPNPNNGNALNFNVKIVAADDSSTVNGECIYENGSFSGGSDGCTVSVTAGKAKFVLYN",glycan array binding signal (z-score),[1],-0.099
same,glycan array binding signal (z-score),[2],0.527
same,glycan array binding signal (z-score),[3],0.576
same,glycan array binding signal (z-score),[4],-0.357
same,glycan array binding signal (z-score),[5],0.186
same,glycan array binding signal (z-score),[6],-0.338
same,glycan array binding signal (z-score),[7],0.353
same,glycan array binding signal (z-score),[8],-0.516
same,glycan array binding signal (z-score),[9],-0.618
same,glycan array binding signal (z-score),[10],-0.719
same,glycan array binding signal (z-score),[11],0.852
same,glycan array binding signal (z-score),[12],-0.085
same,glycan array binding signal (z-score),[13],-1.78
same,glycan array binding signal (z-score),[14],0.316
same,glycan array binding signal (z-score),[15],-0.004
same,glycan array binding signal (z-score),[16],0.058
same,glycan array binding signal (z-score),[17],0.353
same,glycan array binding signal (z-score),[18],-0.319
same,glycan array binding signal (z-score),[19],-0.724
same,glycan array binding signal (z-score),[20],-0.379
same,glycan array binding signal (z-score),[21],0.194
same,glycan array binding signal (z-score),[22],-0.951
same,glycan array binding signal (z-score),[23],-0.296
same,glycan array binding signal (z-score),[24],-0.468
same,glycan array binding signal (z-score),[25],0.07
same,glycan array binding signal (z-score),[26],0.417
same,glycan array binding signal (z-score),[27],0.494
same,glycan array binding signal (z-score),[28],-0.83
same,glycan array binding signal (z-score),[29],1.29
same,glycan array binding signal (z-score),[30],-0.282
same,glycan array binding signal (z-score),[31],-0.246
same,glycan array binding signal (z-score),[32],-0.083
same,glycan array binding signal (z-score),[33],-0.171
same,glycan array binding signal (z-score),[34],0.557
same,glycan array binding signal (z-score),[35],-0.681
same,glycan array binding signal (z-score),[36],-1.45
same,glycan array binding signal (z-score),[37],0.852
same,glycan array binding signal (z-score),[38],-0.633
same,glycan array binding signal (z-score),[39],-0.469
same,glycan array binding signal (z-score),[40],0.285
same,glycan array binding signal (z-score),[41],2.25
same,glycan array binding signal (z-score),[42],-0.275
same,glycan array binding signal (z-score),[43],-0.166
same,glycan array binding signal (z-score),[44],-0.135
same,glycan array binding signal (z-score),[45],0.275

# A run of entries from the list above:
binder,measurement,setting,value
"SUN4 (Saccharomyces cerevisiae), P53616 (protein) MGSSHHHHHHSSGLVPRGSHNGSIYGDLADFSGPYEKFEDGTIPCGQFPSGQGVIPISWLDEGGWSGVENTDTSTGGSCKEGSYCSYACQPGMSKTQWPSDQPSDGRSIGGLLCKDGYLYRSNTDTDYLCEWGVDAAYVVSELSNDVAICRTDYPGTENMVIPTYVQAGDSLPLTVVDQDTYYTWQGLKTSAAYYVNNAGISVEDACVWGSSSSGVGNWAPLNFGAGSSDGVAYLSLIPNPNNGNALNFNVKIVAADDSSTVNGECIYENGSFSGGSDGCTVSVTAGKAKFVLYN",glycan array binding signal (z-score),[38],-0.633
same,glycan array binding signal (z-score),[39],-0.469
same,glycan array binding signal (z-score),[40],0.285
